To fix the notation:
B1: Elongator complex protein 3, putative (PF3D7_1227800) (protein, UniProt Q8I5E0 1-1092)
chain: MIKFKIGRSNKKYEKKSNIDNNEENIKESCDDNILNDQVATDLNSEELNEKNYINEILDESSEDDGNVINSSYEENKKTKNKEESYYYINDAIKRNYPLEYEDNKIYPKVYCYEPTNFENFKKKIKNKNELRHYECYSSTMNEFFYKYNENYYDDILKNESFKKFAEELWSNRSNIKTDQQYQDLCVQLRKKYKISPSKHQISVALQHHYLQSLDDDKKDMESIIELQKNSDHISDINDMDNIIAVDNTNRVDNMNKHDSSHVDETNAPSEEDEFMINKKGKDVKFVLENVNKMIITKEMKNYKDLDKESVHFLQINKRKGVRSNSGVLVVTIITHPHKFSCKYDCHYCPNEPNQPRSYLSTEPAILRANQNNFDVICQFFNRTTTLVNNGHVADKIEVLVLGGTWSCYDIAYQEEFIRDVYYAANIYPVLKDRRKKLTLKEEQEINEKSNCRIIGLTLETRPDQINKDELLRLRYYGCTRVQLGIQHIDDVILKKVNRQCTLKDCIRAIYLLKENGFKVDIHLMPDLPYSDVYKDIHMFKYVLSSTDLQADQWKIYPCEITPFTKIEKWYNNNEYKPYFETNKNLLISVILLVKKSIHPWIRLNRVIRDIPNPSIIAGNNITNMRQLIANEMNIRNIFCQCIRCKEVKNQEIEKKSDSIFLRIYKYPTLGGDEYFITFQGRKKVVNHHGKKNKKNKKSKTSKKDNLNQKYNDEQMKEKDNNKKIQNKNNVNNDNNSNNNYYSDSNGHLSSTSNVLENMETFFNQHETENNQINHSHNTQYEHSGASQNNINSEQSGASQKNKNSEQSGANPENVHNTNVPQNKMDTEIPIDHNIYEDYDNEYSLLGFLRLRLRKKNNYCDDRPFKCLENSALIRELHVYGSLLKHDDFKDELNFIQHKGLGKCLVLVAEIISYFYNYKKVSIIAGVGTREYYKKLGYTKEETYVTKILKREEIYKNYLLNIDRIGKTILIHEYNLKHCLYLMHKEIPEPSKYKRTEITNLNSYINENILHSSDMKNYLVHKKKCTTSSINVQRLLETETNQIVNILWNQFNKWSLDFLIKNRLIFNVSTIVFFSSTFLFTIQFFKKRNINT
B2: PfGet2 (PF3D7_0215600), endogenous (protein, UniProt O96235 1-403)
chain: MDKNTLKRRSRLLQKNEARMSMLLGRNLDDEISKEKKESNKNDKHKKNDQHKKNDKSNQNGEDNQNGEDNQNDESNQNDEHKKNDEHKKNDEHNQNDEHNQNDEHNQNDEHNQNDEHNQNDEHNQNDEHNQNDEHNQNDESNQNDKNRKEIPPKEEKDKENNPSVVMENNNNIRKDQDNKTSEHKSSTNIYNKDKNNDYNKLLDKDDNNNNNKNINKNDENDFTSINNDIPNKNKITSQFIITKHEKLHFIILIILCIFISIFKVYYNNKNNLIYKKKKKGNNNLNIVQMIFFNFINSPNFFFSFSVFYNILFLLIIMLMYIKKNNITRKRIQDFFVNMKNKLNNQNEHVFYFINNAVLCILFMGRIFKSYIISMFLINLFHDILHNYLIGVSMLQPQKVVLL
B3: Deoxyhypusine synthase (PF3D7_1412600) (protein, UniProt Q8ILW8 1-496)
chain: MVDHVSFKEVNKIRSDDECDADSHNEGDNIEDAKASVFVKSSLIPEKTDVVKGLNFDKEVDLHEFINNYKYMGFQATNLGISIDEINKMIYYKYKDENIKSEPNNENNLNCNNVSEDLNKDQENHLYHYEKKKKSCIIWLSFTSNMISSGLREIFVYLAKNKFIDVVVTTAGGIEEDIIKCFSNTYIGDFNLNGKKLRKKGWNRIGNLIVPNDNYCKFEDWLQPILNKMLHEQNEKNEQMFLKKLEKRKKKYNNNKNKNDNNNDNDNVWGNEKNDQNQNQYNQGQESFKKDSNIYTNDVSNKKNHINNYINNYDSDSDDQCDMYYLSPSEFINTLGKEINDESSLIYWCYKNDIPIFCPGLTDGSLGDNLFFHNYGKKIKNNLILDIVKDIKKINSLAMNCEKSGIIILGGGLPKHHVCNANLMRNGADFAVYVNTASEYDGSDSGANTTEALSWGKIKYGQTNNHVKVFGDATILFPLMVLNSFYLYDQKRKKDM
B4: PfGet4 (PF3D7_1438600), endogenous (protein, UniProt Q8IL82 1-277)
chain: MKKFKFSKEKLAKEKIENGLHYEAHQLIKSIINRKLQKNQISNCISVIFYFSLKFATAEQYVLLCDLMYQCCLILTQHDIEFNLEYANKIIEIFQKCPPNSTEEKYKFMNKSILWSKSEENVYGYLEFHKVIGYAYFEDKQYSLAHNHFIYLDDNDILYEIICLWRKEAYPSESHFFVLRTILCLLVLDKFDQALNLINMFETNLNRQDVPLPIQLAYLITSSCIYKSLALYEDVKYKYRLILNYDPDFQKYINIIDAAVFNKKKHNLFSMFQNIFA
B5: Guanine nucleotide-exchange factor SEC12 (PF3D7_1116400) (protein, UniProt Q8IIK2 1-485)
chain: MNEMKVSYLNYPIYGIGSNKDYVVTSGGGGGKNYGIEDMLDINIFNEKEKKLEVVWSTTEQRGVVDSIIYVEKYNIWLGSVKNECILFEINEETGPNILLTFVTDFNERNARQVVVKFSSKDDLILTGGEDKTLRLWKLNFVKREKENKDDIKGDNKKGNDNKTNEDNKKDNDKKTNEDKKKDNDNKTNEDKKKDNDNKTDDDNYIAVNNNLYLDKNKSVEHLGDFVGHDDSIKDCDISFDEKIVCTCSSDHSLKIWDTNSFVNLHTEQMKSPQNKNDKLNFRCCKFLNHSNSFKDFTYTLLTTAYTPRGSSYLIIWKVYYNDKKEQFTFTKDKFIWINDRPCCNIAVSTNQKFIALGFSTGALKIYNSKFYLLAHYKKHELPITAMCFIKDDNYLLSAGADYTISTLHINSFMFRYLRKFGRFIIYFLLLFFISIILLDSFNVGYDLRISSLFHNKAYTNITKKKRNYNVDPKKNKVIMDMDEL
B6: Protein transport protein BOS1, putative (PF3D7_1111300), endogenous (protein, UniProt Q8IIP9 1-289)
chain: MNKKYEPILDNELLSSNNENENFVNSKKKDNENDKIQDTSLNNIYGKIVKIRKELEKSYNLFYSYNLIVSNNKEHDPNSPYNNVYARSDIININNNTKNNLTLNKINALTNSFYMNVQTLKNTYSFINTNNVNNKIINNDNIIWERRIETLSNEANSYIKTLDNIYKTNLKQSEMKNNKKSNYTKSNKRHDGDDAINYLHKENEILKQVEDHLNIFHVQGMNTLNMLRKQNKFLKNVRKKVIDMYNYVGLSSSLVDTIKKAHKQNLIIVIVGIILSLIFFYVIYSYFKR

By UniProt entry, the sequences of proteins in these tests, tags left out. Where a name states a change or a piece, a line headed by the entry shows the natural chain unless it says otherwise.
UniProt Q8I1T8: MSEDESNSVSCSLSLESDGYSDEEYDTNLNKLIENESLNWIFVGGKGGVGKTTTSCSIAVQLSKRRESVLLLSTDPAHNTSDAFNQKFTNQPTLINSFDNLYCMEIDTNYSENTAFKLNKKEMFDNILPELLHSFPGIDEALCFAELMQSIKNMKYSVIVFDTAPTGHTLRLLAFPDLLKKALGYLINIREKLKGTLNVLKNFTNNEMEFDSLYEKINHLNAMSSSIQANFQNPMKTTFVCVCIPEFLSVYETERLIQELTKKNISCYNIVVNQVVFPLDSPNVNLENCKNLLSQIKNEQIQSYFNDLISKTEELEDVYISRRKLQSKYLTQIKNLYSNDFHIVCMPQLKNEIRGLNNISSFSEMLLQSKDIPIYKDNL
UniProt C0H4S2: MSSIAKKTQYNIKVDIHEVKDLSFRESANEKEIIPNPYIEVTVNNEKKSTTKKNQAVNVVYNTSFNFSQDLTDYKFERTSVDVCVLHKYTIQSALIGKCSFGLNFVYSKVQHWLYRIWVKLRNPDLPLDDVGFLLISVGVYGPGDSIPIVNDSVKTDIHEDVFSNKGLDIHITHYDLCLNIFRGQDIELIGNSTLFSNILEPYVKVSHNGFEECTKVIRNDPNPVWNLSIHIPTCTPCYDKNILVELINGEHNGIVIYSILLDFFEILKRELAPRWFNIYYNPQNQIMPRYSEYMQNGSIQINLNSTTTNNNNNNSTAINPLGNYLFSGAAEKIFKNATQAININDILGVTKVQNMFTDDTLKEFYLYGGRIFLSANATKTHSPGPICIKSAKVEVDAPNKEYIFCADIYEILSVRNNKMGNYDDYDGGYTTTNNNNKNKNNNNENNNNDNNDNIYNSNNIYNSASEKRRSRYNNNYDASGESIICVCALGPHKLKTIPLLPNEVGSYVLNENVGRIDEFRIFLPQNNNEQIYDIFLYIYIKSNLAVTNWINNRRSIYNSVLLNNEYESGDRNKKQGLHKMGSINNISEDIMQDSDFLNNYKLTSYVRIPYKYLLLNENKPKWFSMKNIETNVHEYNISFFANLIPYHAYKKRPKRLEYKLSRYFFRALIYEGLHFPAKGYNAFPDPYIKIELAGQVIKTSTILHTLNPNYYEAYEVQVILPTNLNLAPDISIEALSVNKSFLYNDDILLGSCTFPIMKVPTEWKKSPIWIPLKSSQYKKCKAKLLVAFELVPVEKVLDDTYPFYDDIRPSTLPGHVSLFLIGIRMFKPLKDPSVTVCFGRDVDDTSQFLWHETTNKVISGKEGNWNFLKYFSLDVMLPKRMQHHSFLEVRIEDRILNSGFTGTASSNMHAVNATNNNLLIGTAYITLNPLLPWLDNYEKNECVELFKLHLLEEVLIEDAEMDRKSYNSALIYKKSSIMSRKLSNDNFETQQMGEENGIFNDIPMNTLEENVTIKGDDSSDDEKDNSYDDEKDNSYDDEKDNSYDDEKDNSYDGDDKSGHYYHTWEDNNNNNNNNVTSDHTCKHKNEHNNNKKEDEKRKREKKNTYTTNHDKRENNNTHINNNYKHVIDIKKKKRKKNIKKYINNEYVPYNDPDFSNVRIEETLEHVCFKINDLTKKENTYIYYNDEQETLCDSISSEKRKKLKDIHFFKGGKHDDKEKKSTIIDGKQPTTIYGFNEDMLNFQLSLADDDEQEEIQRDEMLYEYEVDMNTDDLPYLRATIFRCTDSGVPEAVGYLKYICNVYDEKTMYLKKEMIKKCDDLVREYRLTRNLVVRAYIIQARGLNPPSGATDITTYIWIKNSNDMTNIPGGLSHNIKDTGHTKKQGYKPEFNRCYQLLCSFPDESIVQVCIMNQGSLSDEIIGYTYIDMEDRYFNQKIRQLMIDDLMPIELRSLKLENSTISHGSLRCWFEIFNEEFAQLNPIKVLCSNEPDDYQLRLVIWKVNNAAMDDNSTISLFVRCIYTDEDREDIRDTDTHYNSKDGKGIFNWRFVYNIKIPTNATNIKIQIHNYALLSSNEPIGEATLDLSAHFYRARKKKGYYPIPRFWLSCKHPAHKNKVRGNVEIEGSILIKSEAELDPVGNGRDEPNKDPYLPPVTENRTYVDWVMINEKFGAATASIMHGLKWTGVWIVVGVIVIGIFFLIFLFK
UniProt Q8I5D0: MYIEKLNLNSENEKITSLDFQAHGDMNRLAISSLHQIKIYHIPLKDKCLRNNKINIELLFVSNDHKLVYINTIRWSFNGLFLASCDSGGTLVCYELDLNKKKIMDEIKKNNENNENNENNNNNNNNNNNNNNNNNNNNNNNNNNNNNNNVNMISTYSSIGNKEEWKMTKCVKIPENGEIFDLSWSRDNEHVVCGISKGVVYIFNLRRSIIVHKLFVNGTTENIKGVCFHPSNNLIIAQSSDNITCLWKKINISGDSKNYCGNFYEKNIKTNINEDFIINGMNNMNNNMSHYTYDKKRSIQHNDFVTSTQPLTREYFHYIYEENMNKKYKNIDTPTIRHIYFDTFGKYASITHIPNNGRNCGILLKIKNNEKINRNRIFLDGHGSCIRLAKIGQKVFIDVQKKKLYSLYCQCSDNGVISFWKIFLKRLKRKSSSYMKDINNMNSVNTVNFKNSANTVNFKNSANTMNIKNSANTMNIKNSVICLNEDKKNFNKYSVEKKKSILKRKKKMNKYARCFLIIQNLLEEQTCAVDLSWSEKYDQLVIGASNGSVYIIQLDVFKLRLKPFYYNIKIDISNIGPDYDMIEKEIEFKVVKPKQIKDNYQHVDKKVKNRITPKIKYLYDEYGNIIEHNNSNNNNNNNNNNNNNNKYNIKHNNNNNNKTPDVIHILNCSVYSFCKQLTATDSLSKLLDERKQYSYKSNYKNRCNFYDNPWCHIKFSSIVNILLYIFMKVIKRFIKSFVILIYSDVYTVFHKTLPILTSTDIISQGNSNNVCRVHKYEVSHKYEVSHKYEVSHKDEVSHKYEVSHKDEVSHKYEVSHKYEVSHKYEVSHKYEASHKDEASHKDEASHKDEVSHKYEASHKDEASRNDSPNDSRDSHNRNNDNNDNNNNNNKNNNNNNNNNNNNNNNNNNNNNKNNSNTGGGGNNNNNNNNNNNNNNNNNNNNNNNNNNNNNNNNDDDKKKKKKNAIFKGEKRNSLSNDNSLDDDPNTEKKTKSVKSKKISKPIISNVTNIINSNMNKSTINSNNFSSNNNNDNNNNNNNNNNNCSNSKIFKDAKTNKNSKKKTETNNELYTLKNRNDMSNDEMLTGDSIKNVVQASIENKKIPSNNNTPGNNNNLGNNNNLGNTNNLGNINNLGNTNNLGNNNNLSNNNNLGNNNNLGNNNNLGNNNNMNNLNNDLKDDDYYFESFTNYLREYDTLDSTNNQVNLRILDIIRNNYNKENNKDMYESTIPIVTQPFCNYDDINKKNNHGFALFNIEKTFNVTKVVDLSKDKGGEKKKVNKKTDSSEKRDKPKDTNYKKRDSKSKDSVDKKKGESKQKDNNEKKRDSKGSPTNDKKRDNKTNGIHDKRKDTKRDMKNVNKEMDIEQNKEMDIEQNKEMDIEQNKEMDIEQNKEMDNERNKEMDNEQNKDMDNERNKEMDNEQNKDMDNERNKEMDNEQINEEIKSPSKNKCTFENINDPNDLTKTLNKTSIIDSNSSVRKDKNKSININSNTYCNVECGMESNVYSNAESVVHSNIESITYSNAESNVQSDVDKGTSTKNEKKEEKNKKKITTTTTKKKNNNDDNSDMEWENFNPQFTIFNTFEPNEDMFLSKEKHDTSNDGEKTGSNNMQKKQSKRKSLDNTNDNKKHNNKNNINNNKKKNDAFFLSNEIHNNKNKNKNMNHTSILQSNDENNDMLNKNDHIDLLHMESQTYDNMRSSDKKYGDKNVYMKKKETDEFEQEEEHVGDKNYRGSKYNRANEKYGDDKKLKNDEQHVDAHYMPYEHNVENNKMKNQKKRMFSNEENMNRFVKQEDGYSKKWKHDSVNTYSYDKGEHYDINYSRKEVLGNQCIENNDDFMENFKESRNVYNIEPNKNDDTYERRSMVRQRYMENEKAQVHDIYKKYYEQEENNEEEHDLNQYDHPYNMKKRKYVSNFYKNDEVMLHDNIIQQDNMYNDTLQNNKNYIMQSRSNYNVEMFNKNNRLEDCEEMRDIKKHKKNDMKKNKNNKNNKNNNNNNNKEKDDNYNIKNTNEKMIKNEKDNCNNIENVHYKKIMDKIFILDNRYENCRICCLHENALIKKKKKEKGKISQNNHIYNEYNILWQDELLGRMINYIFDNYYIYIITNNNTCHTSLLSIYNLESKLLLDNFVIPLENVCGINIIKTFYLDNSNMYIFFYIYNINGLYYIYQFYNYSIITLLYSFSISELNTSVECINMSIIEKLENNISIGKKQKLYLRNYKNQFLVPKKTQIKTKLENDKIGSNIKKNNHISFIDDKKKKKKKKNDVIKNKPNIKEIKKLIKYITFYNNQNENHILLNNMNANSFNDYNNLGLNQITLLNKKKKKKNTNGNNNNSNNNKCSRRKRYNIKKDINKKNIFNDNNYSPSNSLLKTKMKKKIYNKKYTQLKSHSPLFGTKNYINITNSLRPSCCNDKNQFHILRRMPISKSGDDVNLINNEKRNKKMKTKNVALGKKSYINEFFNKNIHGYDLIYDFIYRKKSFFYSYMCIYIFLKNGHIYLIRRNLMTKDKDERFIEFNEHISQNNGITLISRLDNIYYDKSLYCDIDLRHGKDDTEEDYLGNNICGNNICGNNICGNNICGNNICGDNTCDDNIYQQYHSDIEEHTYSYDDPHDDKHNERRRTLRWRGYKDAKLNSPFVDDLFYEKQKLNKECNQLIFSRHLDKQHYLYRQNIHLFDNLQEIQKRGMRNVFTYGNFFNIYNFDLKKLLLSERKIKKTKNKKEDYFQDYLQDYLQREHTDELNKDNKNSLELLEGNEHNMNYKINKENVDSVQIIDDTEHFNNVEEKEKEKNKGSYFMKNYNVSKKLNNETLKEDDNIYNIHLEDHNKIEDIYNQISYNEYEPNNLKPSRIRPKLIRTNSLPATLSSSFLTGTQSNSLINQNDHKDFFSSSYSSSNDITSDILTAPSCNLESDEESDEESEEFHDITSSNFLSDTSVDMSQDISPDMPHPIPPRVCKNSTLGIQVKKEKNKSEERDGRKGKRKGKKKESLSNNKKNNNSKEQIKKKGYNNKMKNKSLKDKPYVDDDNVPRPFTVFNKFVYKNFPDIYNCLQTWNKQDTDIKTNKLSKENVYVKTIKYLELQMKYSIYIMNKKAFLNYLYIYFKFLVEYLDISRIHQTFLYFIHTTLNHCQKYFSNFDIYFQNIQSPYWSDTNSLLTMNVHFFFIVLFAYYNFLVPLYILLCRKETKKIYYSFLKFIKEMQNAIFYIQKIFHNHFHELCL

Here are results for 9 molecules from publication PMC8629386.

Results are given in words; binding and its absence hold for the method and conditions named. Binding seen in cells or lysates may run through a third protein. These calls come from enrichment with a bait or labelling near it, and not all partners need be listed.

The target of the first assay is PfGet3-BirA*-HA (P. falciparum 3D7) (UniProt Q8I1T8). Kind of assay: proximity labelling; BioID: transgenic P. falciparum 3D7 expressing PfGet3-BirA*-HA grown 48 h with 50 μg/ml D-biotin (BioID) or without (control); extract in 50 mM Tris.HCl pH 7.5, 500 mM NaCl, 1% Triton-X-100; biotinylated proteins purified on StrepTactin XT; read by LC-MS/MS or western blot (anti-HA, anti-PfGet3). For orientation: In western blotting, separated proteins are transferred to a membrane and probed.
Regarding “Ferlin-like protein, putative (PF3D7_0806300) (from UniProt C0H4S2 1-1704)”, the binding entry is recorded as “binds”.
Still for that read-out and setting: with “native untagged PfGet3 (from UniProt Q8I1T8)” the entry was “binds”.
On the same count and under the same terms, the value for “WD repeat-containing protein, putative (PF3D7_1228800) (from UniProt Q8I5D0 1-3209)” was “binds”.

The target is the same in a further assay. The assay is described as above. This is another data set of the same source.
Take B1: the binding entry is recorded as “binds”.
In the case of B2, the binding entry is on record as “binds”.
On the same count and under the same terms, with B3 the entry was “binds”.
Same read-out and setting: the value for B4 was “binds”; that for B5 was “binds”.
Still for that read-out and setting: the value for B6 was “binds”.
